Results: publication PMC8149808
No constants are given. Whether binding was seen depends on the method and setting. In cells and extracts the contact can be indirect. Some entries that bind do so weakly or less than the wild type.

Sequences of proteins named here, by UniProt entry; tags and fusion partners are left off. A change or cut given only in a name is not applied to a line headed by its entry. A line that says so, or that is headed by a name, gives the form on record, which may keep a tag or linker. Residues count along the entry.
UniProt O15260: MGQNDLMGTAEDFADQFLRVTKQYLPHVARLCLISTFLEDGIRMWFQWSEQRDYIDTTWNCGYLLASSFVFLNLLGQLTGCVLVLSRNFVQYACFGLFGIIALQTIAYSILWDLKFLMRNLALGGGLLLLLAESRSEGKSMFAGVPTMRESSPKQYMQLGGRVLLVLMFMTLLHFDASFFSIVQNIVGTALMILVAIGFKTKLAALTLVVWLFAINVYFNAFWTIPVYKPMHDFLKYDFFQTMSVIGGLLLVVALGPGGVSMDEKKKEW
α1-antitrypsin, wild type (α1AT^WT) (P01009, residues 25-418): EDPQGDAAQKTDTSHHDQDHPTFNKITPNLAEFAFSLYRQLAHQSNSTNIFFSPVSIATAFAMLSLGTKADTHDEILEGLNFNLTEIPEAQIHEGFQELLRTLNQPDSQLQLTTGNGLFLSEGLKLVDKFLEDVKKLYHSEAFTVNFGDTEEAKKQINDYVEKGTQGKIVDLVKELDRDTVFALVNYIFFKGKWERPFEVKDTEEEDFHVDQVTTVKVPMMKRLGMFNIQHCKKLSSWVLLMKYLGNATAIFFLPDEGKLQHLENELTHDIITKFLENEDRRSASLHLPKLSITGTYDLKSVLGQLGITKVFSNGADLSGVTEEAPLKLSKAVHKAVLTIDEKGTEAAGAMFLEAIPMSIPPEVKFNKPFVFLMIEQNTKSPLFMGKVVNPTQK
α1-antitrypsin King's variant (α1AT^H334D) (P01009, form named): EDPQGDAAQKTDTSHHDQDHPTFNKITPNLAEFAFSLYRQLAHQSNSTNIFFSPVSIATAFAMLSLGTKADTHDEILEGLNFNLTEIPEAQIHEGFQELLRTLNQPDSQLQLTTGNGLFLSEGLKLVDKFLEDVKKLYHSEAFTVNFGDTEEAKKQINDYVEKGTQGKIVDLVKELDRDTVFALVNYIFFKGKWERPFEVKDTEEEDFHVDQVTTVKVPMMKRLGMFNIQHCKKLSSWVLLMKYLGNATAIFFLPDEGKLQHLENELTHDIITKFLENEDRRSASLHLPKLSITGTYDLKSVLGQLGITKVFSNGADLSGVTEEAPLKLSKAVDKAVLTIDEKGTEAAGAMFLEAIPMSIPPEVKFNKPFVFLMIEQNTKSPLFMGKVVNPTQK

How the values were obtained:
[1] = biological target: FLAG-tagged SURF4 (surfeit protein locus 4) (UniProt O15260); assay: cross-linking + co-IP; CHO-K1 Tet-on cells (500 ng/ml doxycycline, 20 hr) cross-linked with 1 mM DSP for 2 hr on ice; Nonidet lysis buffer; anti-FLAG-M2 agarose overnight at 4°C; four RIPA washes; α1AT detected by immunoblot; cells with 7xHis-SURF4 as control
[2] = biological target: 7xHis-tagged SURF4 (surfeit protein locus 4) (UniProt O15260); assay: cross-linking + pull-down; same DSP-cross-linked CHO-K1 lysates; Ni-NTA agarose under denaturing conditions (8 M urea, 10 mM imidazole) overnight at RT; washes with 8 M urea and 10, 20 or 30 mM imidazole; α1AT detected by immunoblot; cells with FLAG-SURF4 as control

## α1-antitrypsin, wild type (α1AT^WT) (from UniProt P01009 25-418)
[1]
  binding: binds
[2]
  binding: binds

## α1-antitrypsin King's variant (α1AT^H334D) (from UniProt P01009 25-418)
[1]
  binding: binds
[2]
  binding: binds
